No constants are given. Whether binding was seen depends on the method and setting. Binding seen in cells or lysates may run through a third protein. These calls come from enrichment with a bait or labelling near it, and not all partners need be listed. Sequences can lack the tags named with a protein.
B1: Oxidoreductase (CNAG_04955) (protein, UniProt J9VL98 1-379)
chain: MSMLLRARHVPPPLTRTMPLPYTVASTVPLPPAAVSKLQGAFASFIHRTDSSSPFTKDELSKIQVFFTTGRGPPVDSLAHVPNLELVQLCSAGADKAIASPAMKAYVDGRKAGDGKGDSKEVRLATASGTHVLSIPNYAVAMVITLLHQLPRQIVGARTEQRWLSEEECDMDGQAYYARKTFHRTAGLLGYGSLGRETARLLKAHGMRIIAANTSGKATPQDGYVIPGTGDKDGSIPEAFYSTKDPKSVKEFLNQCDVLVASLPNTPATQHFLNKEKLEMLPKGAVLVNVGRGSLIPSDDLIAVLNTPHLFGAALDVTDPEPLPAQHPLWSHPKCIITPHLSGNTEGEMEIAADVLMFNVQRMNDGKGVVNEVKWERGY
B2: RNA-binding protein 39 (protein, UniProt J9VSU3 1-615)
chain: MSTTPPRSSYQSANGGDKTPELTTKREKRHREDDEEDDRDVSGRSHRYRREDDRDYDRDRSDRGDRDRDRERRNRHRRRDETEEERRERHRRREEETEEEREERHRRRRERELRERGREREREDDYRRGSREMSVGRPLSHRDRSRESHRSYRSHRDRDEMPPIRPMSREPRDMAEERRENDRRREMHFADLERDGRMRSPPPRRRRLSPEYGGPRGPPPRRPPPPPRDPATALIEEVDSEARSIFVSQLSARMTSQVLGLFFEDKLGRGAVRDARVVTDKVARRSKGIGYVELDSVDLVNKALALSGTVVMGIPINIMLTEAERNHSGTELITATALASNARSHGGGGRSSVPFTQNYPPLSTGLDLPPGLDPDAHKDAAIPYHRLFVSNLAFSLTADDVRQVFEPFGEIEFVDLHMDLSGLRKGTAYVQFKDVKSAQMALDAMAGFDLAGRLIKVQTIQERGTYQTPDLIEDSGNYGTRLDANQRQQLMFKLARTEPNVNLSLSAPRINDSQSKVPAMDPTPRIVVHNMFNPEEETERNWDLDLAEDVKGEVESKYGRVKRIKVEKMSAGEVYIEFIDTDSAIKAVKGLNGRFFGGRQLQAGYITEALFNAHL
B3: Beta-catenin-like protein 1 (protein, UniProt J9VPN3 1-643)
chain: MDIDKMFKLPSLPSGGNKRKMGDLPNPETLKKYKPSEPQAASEMIPPPPPGGLNGKGKGRAVTVEDDDVEAEYSRGEDVYDGEDDEEGRFFGGGLNKEQEQILDIFDAAGEGEQGPTLDLPALRRQIGKFQRIVMKNAEQRGKFPDDPSKFIDSESDLDTSLKAFLPLTQNPPLFYPELVKSGIIPIFANLLSHENTDIAIDVVEVIQELTDEDVGGEVDDLNGEEETGSETRMAMGQLIDELLNNSLLDLLVSNLSRLDESEDTDSQGVFHILGVFENLLSFMPPLADQIVEGTALLQWLLQRIKKKEYDSNKQYASEIMAILLQDSRANVLKLGQLDGMDVMLQVLSQYLKVDPGDSEEVEFMENVFDSVCSSLAQPEMKKAFLDAEGVELMVLMMKEKRLAKTRAIKVLDYALQTESGSPACERFVQALGLKTFFSAFMSSASSKAGGKKNKSKLGAAAATSAVEDEEHMLGILASLFTNLASDSPERIRVIAKFVEGGYEKVERLLEVRDAAEGRLGSVIKEIEYERKVMQANEEEITDVEETEWYLRKMDAGLASLQNADYVLAWVCMEDDGAMTHARLLLSRKNMNFKTIAAVLTEFKNNVGDNDEPDEEDGQRQADDAANTQKMILEHLIAFLEGL
B4: Ubiquitin-conjugating enzyme E2 (protein, UniProt J9VS15 1-151)
chain: MAKVPRSFRLLSELEHGEKGIGDGSCSYGLKDSDDIAMYEWNGTILGPPHSAFENRIFSLSIYCGDNYPDVPPLVKFESRISLPCVNQQGLVDFSRISSISRWNRNFTLETVLVELRRDMASPANRKSSQPPEGVDFPPLDLRALAQQRGL
B5: Rab family protein (protein, UniProt J9VVN1 1-203)
chain: MSRTTSFKLVLLGESAVGKSSLVLRFVRNEFSDFRESTIGAAFLTQSVNLDESTTIKFEIWDTAGQERYKSLAPIYFRNSNAAVIVYDITQPPETSFEKAKSWVRELHRQADPSIVIMLVGNKTDMESQRKTSREMGEQYAKEEGLLFAEASAKTGEGVEELFMEIAKKLPLAPPPPRGQVAGGKGVQVSGQEDSATLSACTC
B6: Histone deacetylation protein Rxt3 (J9W095) (protein, UniProt J9W095 1-1165)
chain: MHPYGKLPQPQGTSNATSPPLPTATPASGPPPNPLRPSYGLVTDRDRDRERQTLGNPYSYPSSLQRPDPPSSSSSSHSHQQRHQHHHHHHHHPSGASSAGSTPRDERTNPYAPPPPGASAGRKPDMLGVGLGAGLGRLSGGYGLFGNSPFREQEMRDRERQERIQRERERDLKPPVPTSPTQRASISTTPGNSYPRPSLPPSPTNTIRGGLPASNTVTSKPSISPQLPPASAGSASASAARPSLPLPNFSSLGSRSLPSPFERDTRERSASGSAHPSPAVPTTQEVPPAVGGHARSLSNSSAREIPGLSGNDRSPPKPSAPSTARSLYAGGPPPLSGSQGSRDREVQRSPVTRAPTAASPREPSRDNISPPVAASTAKPPSSQAPPASGSLSGAPTSGRGPYTSSYTYPSNPAYAGSFGGFGLSSFGGYGAFGGPRWDHEREREAREARDARERVEREGKRDEEDKRKKEIERQREKEREEREREKWKAVREQDQRERERRSSLSTPSAAPGSSVATARPPDPYRRNTGSFEGKPSSGYTRHIEVLNHPDPSAQPAAASQNATNPAYERETSVIQQVAPTREPRPYGYKPEPVARETPPVQPPIREPAVSQMPRESLSSTAGREPRPEREYYQTVPPSAPVIPPIPVNAPVQPPREKRSRMDAVVEDAQVAHQAQQAQRRSSQAKSKRRKLEEEKMTQAHHGMGHSHASYGNHNVHGRHSPVMDKRDFASLAQLPQKRVEVSSAPVEAWLKGLPSLSRVIGTIDYSGKPFTLVKTGLVKPENEGGLIIVRIGGGFLGRGWRVRGEPGWEDASTKQVGNVVCGAQDPERACWGTDVYTDDSDLGLILVHAGWIRWSALPSLRSPQDRKKDEQEFINVTVRLVPRLVRYIGTERNGLKTRGWGNGHDGSSVVVERVERVKIDRKYLASRKRKARISEWVHQRALVCPIPSSKQEDEKMKETILLTTTVPTESLILSAINVSGKDVTVTGAFKYSPDVLKGWLDVPIEGDELDKSLWGYKLILEGSGETYQISMNKESTYKYPLINLTQLLPSDTGPKEIFASHPASGIYLWDGGFAAQIQGEKGILFKVEKFKWEKLKEGEVGAWAKEVEEVVPAVEEIADDVPVEEEGESAPQGDHEMAVDIAEVNGANGINGHVHMKEEQMDVDG
B7: F-type H-transporting ATPase subunit G (protein, UniProt J9VQH4 1-156)
chain: MRPQLFRPVRTLGRRLNSSSASPQTNPNVQKAVENAQKAYAQTAATLKKAAGPVGEKIGGALGGYREPVIYNSKVFASICRQVWQAEKLSPPLELATWARAYSEIYSKAVNGGYWKNVLKTGAWAGLGVAALEAYGIFKIGEIVGRRNLIGYSLKE
B8: Protein transport protein SEC23 (protein, UniProt J9VY38 1-763)
chain: MNFEDIEDKDGVRFSWNVWPSSRLEATRTVVPISALYTPLKEREDLPPVMYEPVTCKGSSCKAILNPYCQVDVRGKMWICPFCLQRNPFPPHYHQDLSPNNLPPELLPKFTTIEYTLSRPAQIPPIFLYIVDTCVDEDELKALKETLVVSLSLLPPNALVGLVTYGTMAMVHELAYADCPKAYVFRGSKDYQPKQIADMLGLNPSNRPIQPVRPGQPMPAPAASKFLMPVQACEFQLTNILEQLQRDPWPVDQDKRPLRCTGVALSVAVSLLETAFPNTGARIMLFSGGPATDGPGMVVGPELREPIRSHHDIDRDSVKHFKRASKFYEALSKRASVNGHAIDIYAGCLDQVGLLEMKSLTNATNGFMTISDSFMTAIFKQSFLRTLGKDEQGYLKMGFNATYDVLTTKELKISGVIGHVISANKKSSCVGETEIGIGQTSAWKVCSLTPKSTLATYFEVVTPAGQALAPNQSGLIQFVTHYQHSSGQYRLRVTTVSRVFQEGGHPSIAASFDQEAAAVLMARIAVFKAEIDDSPDVLRWLDRMLIRLCQKFADYRKEDPTSFQLSPNFSIYPQFMFHLRRSQFLQVFNNSPDETAFYRHVLNDSDVNNSLIMIQPTLMSYGFDSEPHPVLLDSVSIRPDVILLLDTFFHILIFHGETIAQWRKANYQEQEDYANFKELLEAPIGDAQELLEDRMPIPRYVVCDQGGSQARFLLSKLNPSTTHMSGSNYGAGPAGGQAIFTDDVSLQVFMEHLKRLAVGASTS
B9: Phosphotransferase (protein, UniProt J9VWU8 1-557)
chain: MSETPDQLASRVQKLSTATTTTQRTGSGSAVLENGTNTGSTAGRKASIPAQVDPERIISSSGSGRASRRGSGLVMTPGGVQTVYHTRTNDDIEFPHAEKKTMSDLLRKYESLFTLTPQRMRMIVHAIEETLDNGLQKNGQVVPMIPTYVFGWPTGDEVGDFLALDLGGTNLRVCLVTLLGRGKFEVTQTKYRLTEEQKQGEGQDLLDFCAECLNSFIRDTLGRTENDGILPLGFTFSYPCSQDRIDHGVLIRWTKGFGAPNIEGYDVAAMFKDSLKRFNVPAELTALINDTTGTLIASNYVDPHTKIAVIFGTGCNAAYMETAGSIPKIDYVGLPKEQGMAINCEWGAFDSFNHQHLPRTKYDIIIDESSNKPGEQSFEKMIAGLYLGEIFRLVLCELIDSGDLFLGQNTYKLEKAYAFDTAFLSLMEADVTEELLTVIGVFTHFFGLETTLEERQFFKKLAVLVGTRSARLSACGIAAIVSKKGYLEEGCAVGADGSLYNKYPNFADRVHEALTDIFGESGKKIVTHHAEDGSGVGSAIIAAMTKARKDSGFFVEY

Target: T1, Cdc3-mCherry (C. neoformans) (UniProt J9VUF2)
T1 sequence: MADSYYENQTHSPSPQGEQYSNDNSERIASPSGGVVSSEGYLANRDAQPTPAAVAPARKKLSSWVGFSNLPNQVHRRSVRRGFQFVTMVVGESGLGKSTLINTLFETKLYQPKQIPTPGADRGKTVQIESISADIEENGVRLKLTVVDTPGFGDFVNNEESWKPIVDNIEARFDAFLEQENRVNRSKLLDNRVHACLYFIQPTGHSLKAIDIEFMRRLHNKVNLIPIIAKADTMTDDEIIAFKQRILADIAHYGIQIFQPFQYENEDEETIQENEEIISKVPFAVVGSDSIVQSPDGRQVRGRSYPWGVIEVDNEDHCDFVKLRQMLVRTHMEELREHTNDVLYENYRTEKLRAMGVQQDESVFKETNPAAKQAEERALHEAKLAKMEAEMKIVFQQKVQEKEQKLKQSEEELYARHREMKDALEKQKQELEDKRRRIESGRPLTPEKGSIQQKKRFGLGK
Experiment: affinity purification with mass spectrometry; mCherry-tagged septin captured from C. neoformans lysate on RFP-Trap agarose, 4 h at 4°C, washed with TBS with 2 M urea pH 7.5; GeLC-MS/MS; untagged H99 as negative control; hits logFC >2 and adjusted p <0.001 (text-named hits <0.05); exponential cultures at ~25°C or shifted to 37°C for 2 h; N = 5

binding, binds:
B1
B2
B3
B4
B5
B6
B7
B8
B9

From PMC11651612
